Experimental data from article PMC9786881 (Viruses, 2022).
Results are given in words; binding and its absence hold for the method and conditions named. Some binding calls cover weakened binding; strength is not graded here.

Biological target: RABV nucleoprotein lacking its N-terminal arm (N[change], residues 24-450) (rabies virus (strain CVS-11)) (UniProt Q8JXF6)
Experiment: fluorescence polarisation

Substance: P42 labeled with FAM at its N-terminus (from UniProt P22363 1-42) (peptide)
- binding: binds
